# Percent effect of library compounds

Amino acid sequences for entries named in this document (tags omitted). Residues count along the entry.
UniProt P9WNZ1, whole entry: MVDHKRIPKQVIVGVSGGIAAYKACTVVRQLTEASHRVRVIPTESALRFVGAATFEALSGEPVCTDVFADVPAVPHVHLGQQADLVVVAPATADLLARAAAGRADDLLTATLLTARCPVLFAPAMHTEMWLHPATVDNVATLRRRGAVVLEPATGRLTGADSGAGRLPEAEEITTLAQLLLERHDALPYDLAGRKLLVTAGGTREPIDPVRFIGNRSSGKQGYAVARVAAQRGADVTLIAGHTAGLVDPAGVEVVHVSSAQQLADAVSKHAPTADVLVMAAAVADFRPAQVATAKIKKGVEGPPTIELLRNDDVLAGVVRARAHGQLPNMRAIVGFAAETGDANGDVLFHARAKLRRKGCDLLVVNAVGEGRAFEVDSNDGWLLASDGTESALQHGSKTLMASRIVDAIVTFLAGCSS
UniProt Q8IDJ8, 1-583: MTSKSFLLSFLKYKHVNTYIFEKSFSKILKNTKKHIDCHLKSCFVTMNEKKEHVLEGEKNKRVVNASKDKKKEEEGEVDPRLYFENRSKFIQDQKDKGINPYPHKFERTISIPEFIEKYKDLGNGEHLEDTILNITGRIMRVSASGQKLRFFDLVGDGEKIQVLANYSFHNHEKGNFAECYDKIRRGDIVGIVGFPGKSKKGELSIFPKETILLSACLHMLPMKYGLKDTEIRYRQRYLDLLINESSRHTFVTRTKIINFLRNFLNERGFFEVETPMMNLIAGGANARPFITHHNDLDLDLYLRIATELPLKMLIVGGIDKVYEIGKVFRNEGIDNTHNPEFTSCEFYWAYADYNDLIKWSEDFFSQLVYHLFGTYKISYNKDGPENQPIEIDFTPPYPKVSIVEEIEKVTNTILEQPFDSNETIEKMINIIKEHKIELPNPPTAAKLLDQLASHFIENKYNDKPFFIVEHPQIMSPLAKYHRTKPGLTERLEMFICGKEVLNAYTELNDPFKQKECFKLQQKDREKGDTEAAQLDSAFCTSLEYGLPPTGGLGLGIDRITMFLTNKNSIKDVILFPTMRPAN
UniProt P9WFT3, whole entry: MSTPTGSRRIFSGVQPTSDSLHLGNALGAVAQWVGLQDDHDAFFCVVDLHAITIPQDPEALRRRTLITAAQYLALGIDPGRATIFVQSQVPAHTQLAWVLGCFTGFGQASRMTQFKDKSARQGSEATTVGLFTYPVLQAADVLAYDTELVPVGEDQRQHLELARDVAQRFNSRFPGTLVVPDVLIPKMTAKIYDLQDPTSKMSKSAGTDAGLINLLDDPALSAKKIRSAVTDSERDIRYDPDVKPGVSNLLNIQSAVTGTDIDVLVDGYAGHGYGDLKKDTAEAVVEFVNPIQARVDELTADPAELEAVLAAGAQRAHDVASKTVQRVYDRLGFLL
UniProt I6X8D2, whole entry: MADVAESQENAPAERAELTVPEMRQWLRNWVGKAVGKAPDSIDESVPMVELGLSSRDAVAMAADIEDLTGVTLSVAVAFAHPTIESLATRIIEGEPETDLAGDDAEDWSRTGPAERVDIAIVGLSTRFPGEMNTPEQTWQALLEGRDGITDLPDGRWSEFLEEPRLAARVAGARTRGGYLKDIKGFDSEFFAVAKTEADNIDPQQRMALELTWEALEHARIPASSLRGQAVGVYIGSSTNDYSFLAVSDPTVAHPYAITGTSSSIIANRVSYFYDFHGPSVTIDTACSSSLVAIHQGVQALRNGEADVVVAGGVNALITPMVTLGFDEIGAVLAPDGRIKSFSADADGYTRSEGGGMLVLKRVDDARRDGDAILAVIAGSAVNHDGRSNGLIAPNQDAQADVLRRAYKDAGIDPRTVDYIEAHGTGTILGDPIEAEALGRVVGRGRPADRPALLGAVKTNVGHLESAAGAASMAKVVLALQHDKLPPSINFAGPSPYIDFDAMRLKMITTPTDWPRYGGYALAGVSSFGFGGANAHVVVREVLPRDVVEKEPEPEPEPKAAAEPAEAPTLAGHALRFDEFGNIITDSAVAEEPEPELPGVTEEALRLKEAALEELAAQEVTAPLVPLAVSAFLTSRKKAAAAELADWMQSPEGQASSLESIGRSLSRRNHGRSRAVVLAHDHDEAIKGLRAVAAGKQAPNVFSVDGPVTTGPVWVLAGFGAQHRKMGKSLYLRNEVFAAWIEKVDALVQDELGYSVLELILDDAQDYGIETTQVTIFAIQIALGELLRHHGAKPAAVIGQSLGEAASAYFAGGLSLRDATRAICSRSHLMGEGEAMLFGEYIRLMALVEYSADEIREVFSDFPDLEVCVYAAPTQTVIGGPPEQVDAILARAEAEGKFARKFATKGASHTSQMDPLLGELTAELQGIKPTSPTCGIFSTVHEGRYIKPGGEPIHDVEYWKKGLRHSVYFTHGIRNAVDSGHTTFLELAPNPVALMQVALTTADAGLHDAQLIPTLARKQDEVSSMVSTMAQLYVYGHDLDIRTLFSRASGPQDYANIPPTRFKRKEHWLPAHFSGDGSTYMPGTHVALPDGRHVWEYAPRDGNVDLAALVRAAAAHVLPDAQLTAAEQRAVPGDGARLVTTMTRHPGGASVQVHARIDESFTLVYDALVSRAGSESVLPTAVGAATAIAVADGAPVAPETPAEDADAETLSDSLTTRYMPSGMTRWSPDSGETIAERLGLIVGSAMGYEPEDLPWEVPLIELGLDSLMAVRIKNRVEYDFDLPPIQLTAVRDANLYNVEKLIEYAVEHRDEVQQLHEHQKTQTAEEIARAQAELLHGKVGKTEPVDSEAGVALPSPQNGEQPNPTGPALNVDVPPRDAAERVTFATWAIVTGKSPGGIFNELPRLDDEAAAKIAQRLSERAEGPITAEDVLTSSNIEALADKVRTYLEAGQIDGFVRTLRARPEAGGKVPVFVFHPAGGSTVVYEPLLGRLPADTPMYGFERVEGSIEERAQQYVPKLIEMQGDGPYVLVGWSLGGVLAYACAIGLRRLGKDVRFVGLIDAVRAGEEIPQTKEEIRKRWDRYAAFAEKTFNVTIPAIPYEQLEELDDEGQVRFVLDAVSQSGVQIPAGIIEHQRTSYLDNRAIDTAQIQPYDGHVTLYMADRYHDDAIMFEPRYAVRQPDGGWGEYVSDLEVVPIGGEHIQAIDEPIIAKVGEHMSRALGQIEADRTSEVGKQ

Measurements from “University of Dundee, Small-Polar-MMV Screening Library” (2021), ChEMBL document CHEMBL3988442.

CoaBC: 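Enzyme assay of CoaBC with a phosphate dye (Biomol Green) read at 650 nm. Target: Coenzyme A biosynthesis protein CoaBC, Mycobacterium tuberculosis (UniProt P9WNZ1). Compounds at 30 µM. Direction is inferred from only a few compounds that gave an IC50; most scored high, so higher reads as stronger inhibition. Most strong results did not repeat in a second test. About 67,000 compounds were tested under these conditions; 0.06% (about 40) showed 50% or more at least once.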
PfKRS1: 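Lysine-tRNA ligase, Plasmodium falciparum 3D7 (UniProt Q8IDJ8). Enzyme assay of the cytosolic lysyl-tRNA synthetase in 384-well plates, read by luminescence. Tested at 30 µM. Direction is inferred from only a few compounds that gave an IC50; most scored high, so higher reads as stronger inhibition. Of about 69,000 compounds tested this way, about 49 (0.071%) reached 50% or more in at least one test.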
Toxoplasma: 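Assay of Toxoplasma gondii numbers, read through their beta-galactosidase reporter with a colour substrate. Concentration: 10 µM. The record gives no direction; the compounds picked for IC50 retests had high values, so higher reads as fewer parasites. About 67,000 compounds were tested under these conditions; 0.38% (about 260) showed 50% or more at least once.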
MtTrpRS: 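Enzyme assay of tryptophanyl-tRNA synthetase; the read-out is not stated. Target: Tryptophan-tRNA ligase, Mycobacterium tuberculosis (UniProt P9WFT3). Tested at 10 µM. Direction is not recorded; retested compounds ran higher, which suggests that high means inhibition. Size under these conditions: about 65,000 compounds, about 64 of them at 50% or above in at least one test.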
Pks13 thioesterase: 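Polyketide synthase Pks13, Mycobacterium tuberculosis (UniProt I6X8D2). Enzyme assay of the thioesterase domain of polyketide synthase 13; the read-out is not stated. Concentration: 30 µM. Higher reads as stronger inhibition (inferred from which compounds were picked for retests). About 67,000 compounds were tested under these conditions; 0.46% (about 300) showed 50% or more at least once.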

Values are the deposited “Percent Effect”, in %.
How 0% and 100% were set is not recorded. Most values in the screen are low, and negative values occur.
Compounds were drawn at random from those tested, without regard to their results.
A dash means the value is not listed here; it may have been measured.

CC(C)(C)c1n[nH]c(C2CN(C(=O)CCCn3cccn3)CCO2)n1 (stereo not shown) gave CoaBC: 13.66%; PfKRS1: -3.315%; Toxoplasma: 15%; MtTrpRS: 2.437%; Pks13 thioesterase: -20.18%. For CN(C)C(=O)CNC(=O)CCn1ncc2c(Cl)cccc21 the result was CoaBC: 6.326%; PfKRS1: 5.586%; Toxoplasma: -2.75%; MtTrpRS: 3.015%; Pks13 thioesterase: -26.05%. CC(C)NC(=O)N1CCC2(CC(=O)N(c3ccccc3)C2)C1 (stereo not shown) gave CoaBC: -13.45%; PfKRS1: -0.9679%; Toxoplasma: 1.962%; MtTrpRS: -1.395%; Pks13 thioesterase: 1.459%. Cc1cc(NC(=O)N(CC2CCOC2)C2CC2)no1 (stereo not shown) read CoaBC: 8.475%; PfKRS1: 4.797%; Toxoplasma: 11.41%; MtTrpRS: 2.111%; Pks13 thioesterase: -6.774%. Cc1ccc(CSCCn2nc3ccccn3c2=O)cc1 read CoaBC: 1.08%; PfKRS1: -6.789%; Toxoplasma: 2.085%; MtTrpRS: -1.546%; Pks13 thioesterase: 9.792%. CN(C)C(=O)COCC1CN(Cc2ccsc2)Cc2nccn2C1 (stereo not shown) gave CoaBC: 3.448%; PfKRS1: 3.483%; Toxoplasma: -7.706%; MtTrpRS: -3.591%; Pks13 thioesterase: 2.956%.

O=C(Nc1ccccc1)N1CCn2c(nnc2C2CCCN2)C1 (stereo not shown) read CoaBC: 2.632%; PfKRS1: -0.9104%; Toxoplasma: -8.273%; MtTrpRS: -3.025%; Pks13 thioesterase: -8.842%. For Clc1ccccc1CCn1ccnc1-c1cn(C2CCNCC2)nn1 the result was CoaBC: -20.39%; PfKRS1: 1.043%; Toxoplasma: -6.367%; MtTrpRS: 0.757%; Pks13 thioesterase: -10.37%. For CN(C)C(=O)COC[C@]12COC[C@H]1CN(Cc1ccoc1)C2 the result was CoaBC: 0.8811%; PfKRS1: 0.6335%; MtTrpRS: 2.179%; Pks13 thioesterase: -15.71%. Cc1nc(C)n(CC2CCCN2CC(=O)Nc2cc(C(C)C)no2)n1 (stereo not shown) read CoaBC: 8.514%; PfKRS1: 6.056%; Toxoplasma: -10.23%; MtTrpRS: 1.852%; Pks13 thioesterase: -6.751%. Result for CN1C(=O)C2(CCN(CC3CCC3)C2)c2ccccc21 (stereo not shown) was CoaBC: -1.777%; PfKRS1: -6.27%; MtTrpRS: 2.881%; Pks13 thioesterase: -39.3%. With O=C(c1cccs1)N1CCC(Cn2nc(-c3ccco3)ccc2=O)CC1 the screen gave CoaBC: 1.389%; PfKRS1: 6.178%; Toxoplasma: -7.495%; MtTrpRS: 0.08361%; Pks13 thioesterase: -37.4%.

Cc1oncc1C(=O)N[C@@H]1CN(Cc2ccco2)C[C@@H]2CCCO[C@@H]21 read CoaBC: 4.198%; PfKRS1: 1.976%; Pks13 thioesterase: -8.013%. CCOCCN1CCN(Cc2nnc(-c3ccco3)o2)CC1 read CoaBC: -6.452%; PfKRS1: 2.478%; Toxoplasma: 6.275%; MtTrpRS: -1.967%; Pks13 thioesterase: -19.82%. Result for O=C(O)C(F)(F)F.[H][C@@]12CCN(S(=O)(=O)c3ccc(C)cc3)C[C@]1([H])[C@@H](CN(C)C)OC2 was Toxoplasma: -52.18%. Cc1ccc(C(=O)N2C[C@@H](OCc3cccnc3)[C@H]3OCCC[C@H]32)o1 read CoaBC: 10.4%; PfKRS1: 2.979%; MtTrpRS: -1.759%; Pks13 thioesterase: -14.94%. Result for O=C(c1n[nH]cc1Br)N1CCOCC1 was CoaBC: -1.402%; PfKRS1: 4.655%; Toxoplasma: 22.78%; MtTrpRS: -3.482%; Pks13 thioesterase: -50.34%. For Cc1oncc1C(=O)NCc1cc(=O)n2c(n1)CN(CC(C)C)CCC2.O=C(O)C(F)(F)F the result was Toxoplasma: 3.508%.

C=C(C)CN1CCC(NC(=O)c2scnc2C)CC1 read CoaBC: 1.956%; PfKRS1: -1.124%; Toxoplasma: -16.8%; MtTrpRS: 2.77%; Pks13 thioesterase: -7.338%. [H][C@@]12COC[C@]1(COc1cccnc1)CN(C(=O)Cc1cccs1)C2 read Toxoplasma: -4.029%. For Cc1ncnc(NCCCN2CCCCC2CO)c1C (stereo not shown) the result was CoaBC: 1.214%; PfKRS1: -1.098%; Toxoplasma: -1.076%; MtTrpRS: -0.000006%; Pks13 thioesterase: -0.9346%.

2 of the entries, repeated:

| compound | CoaBC | PfKRS1 | Toxoplasma | MtTrpRS | Pks13 thioesterase |
|---|---|---|---|---|---|
| `CN1C(=O)C2(CCN(CC3CCC3)C2)c2ccccc21` (stereo not shown) | -1.777 | -6.27 | - | 2.881 | -39.3 |
| `Cc1cc(NC(=O)N(CC2CCOC2)C2CC2)no1` (stereo not shown) | 8.475 | 4.797 | 11.41 | 2.111 | -6.774 |